## Results from one PubChem assay

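OHS-50 osteosarcoma cells exposed to compounds for 48 h, with viable, metabolically active cells measured by CellTiter-Glo luminescence. Compounds were tested in dilution series reaching up to 46 µM; the NPC set spanned 0.59 nM to 46 µM. Potency is the concentration giving half of the fitted cell-killing effect; lower values mean stronger cytotoxic potency. Calls come from the curve class and an activity score, where scores of 1 to 39 mark inconclusive: weak, partial, poorly fitted, or top-dose-only killing.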

Values are in µM. Every entry below has the call inconclusive. These entries are mostly ones the record files as inconclusive; other results of the assay are not listed here. Potencies fitted to partial, single-point or poorly fitting curves are rough. Some entries filed as inconclusive have a full curve. Activity scores are not listed here. An entry listed twice with the same setting is a separate test.

| structure | potency (µM) | curve |
|---|---|---|
| `Clc1ccccc1C(c1ccccc1)(c1ccccc1)n1cccn1` | 3.061 | cytotoxic, partial curve, poor fit |
| `CCC(=O)O[C@]1(C(=O)CO)CC[C@H]2[C@@H]3CCC4=CC(=O)CC[C@]4(C)[C@@H]3CC[C@@]21C` | 30.61 | cytotoxic, partial curve, poor fit |
| `COc1cc(OC)c(C(=O)CCCN2CCCC2)c(OC)c1` | 27.28 | cytotoxic, partial curve |
| `CCCCNc1ccc(C(=O)OCCN(C)C)cc1` | 2.756 | cytotoxic, partial curve, poor fit |
| `CC(C)(C)NC(=O)[C@H]1CC[C@H]2[C@@H]3CC[C@H]4NC(=O)C=C[C@]4(C)[C@H]3CC[C@]12C` | 21.89 | cytotoxic, partial curve, poor fit |
| `CCC(=O)O[C@]1(C(=O)CCl)[C@@H](C)C[C@H]2[C@@H]3CCC4=CC(=O)C=C[C@]4(C)[C@@]3(F)[C@@H](O)C[C@@]21C` | 24.32 | cytotoxic, partial curve |
| `CCN(CC)CCOc1ccc(Cc2ccccc2)cc1` | 15.5 | cytotoxic, partial curve |
| `CN(C)CC[C@@H](c1ccc(Br)cc1)c1ccccn1` | 15.5 | cytotoxic, partial curve |
| `Oc1ccc(C2=Cc3ccc(O)cc3OC2)cc1` | 4.852 | cytotoxic, full curve |
| `C[C@]12CC[C@@H]3c4ccc(O)cc4CC[C@H]3[C@@H]1C[C@@H](O)[C@@H]2O` | 15.5 | cytotoxic, partial curve, poor fit |
| `Cc1cc(C(C)(C)C)cc(C)c1CC1=NCCN1` | 27.28 | cytotoxic, partial curve, poor fit |
| `C[C@]12CC[C@H](O)CC1=CC[C@H]1[C@H]3CCC(=O)[C@@]3(C)CC[C@@H]12` | 21.67 | cytotoxic, partial curve |
| `Nc1cccc(S(=O)(=O)N2CCCN(S(=O)(=O)c3ccc4c(c3)OCCO4)CC2)c1` | 19.31 | cytotoxic, partial curve, poor fit |
| `CC(C)OC(=O)OCOP(=O)(CO[C@H](C)Cn1cnc2c(N)ncnc21)OCOC(=O)OC(C)C` | 0.8715 | cytotoxic, full curve |
| `CCC(=O)O[C@]1(C(=O)CCl)[C@@H](C)C[C@H]2[C@@H]3CCC4=CC(=O)C=C[C@]4(C)[C@@]3(F)[C@@H](O)C[C@@]21C` | 21.89 | cytotoxic, single point |
| `CN(C)[C@@H]1C(=O)C(C(N)=O)=C(O)[C@@]2(O)C(=O)C3=C(O)c4c(O)cccc4C[C@H]3C[C@@H]12` | 43.68 | cytotoxic, single point |
| `C#CCN[C@@H]1CCc2ccccc21` | 7.689 | cytotoxic, partial curve, poor fit |
| `Cc1nc2c([nH]1)CCN(C(=O)c1ccc(NC(=O)c3ccccc3-c3ccccc3)cc1)c1ccccc1-2` | 27.28 | cytotoxic, single point |
| `Cc1c(C(=O)O)c(O)cc2c1C(=O)c1c(O)c([C@@H]3O[C@H](CO)[C@@H](O)[C@H](O)[C@H]3O)c(O)c(O)c1C2=O` | 38.93 | cytotoxic, partial curve, poor fit |
| `C=C(c1ccc(C(=O)O)cc1)c1cc2c(cc1C)C(C)(C)CCC2(C)C` | 0.4324 | cytotoxic, full curve |
| `COc1ccc2nc(S(=O)Cc3ncc(C)c(OC)c3C)[nH]c2c1` (stereo not given) | 24.56 | cytotoxic, partial curve |
| `O=C1Nc2ccc(I)cc2C1=Cc1cc(Br)c(O)c(Br)c1` | 13.67 | cytotoxic, partial curve |
| `Clc1cccc(-n2nnnc2NCc2ccccc2Oc2ccccn2)c1Cl` | 19.31 | cytotoxic, partial curve, poor fit |
| `CCCCN(CCCC)CCC(O)c1cc2c(Cl)cc(Cl)cc2c2cc(C(F)(F)F)ccc12` (stereo not given) | 27.56 | cytotoxic, single point |
| `CC(C)(C)c1ccc(O)c(O)c1` | 79.58 | cytotoxic, single point |
| `CC(C)Oc1ccc2c(=O)c(-c3ccccc3)coc2c1` | 15.5 | cytotoxic, partial curve |
| `CN(C)CCC=C1c2ccccc2C=Cc2ccccc21` | 3.061 | cytotoxic, full curve |
| `Nc1ccccc1N` | 19.99 | cytotoxic, partial curve |
| `Cc1ccc(-n2nc(C(C)(C)C)cc2NC(=O)Nc2ccc(OCCN3CCOCC3)c3ccccc23)cc1` | 0.0243 | cytotoxic, full curve, poor fit |
| `CN1CCN(C2=Nc3cc(Cl)ccc3Nc3ccccc32)CC1` | 43.24 | cytotoxic, partial curve, poor fit |
| `O=c1c(O)c(-c2ccc(O)cc2)oc2cc(O)cc(O)c12` | 2.728 | cytotoxic, full curve |
| `CCCCCCCCOc1ccccc1C(=O)Nc1ccc(C(=O)OCC[N+](C)(CC)CC)cc1` | 7.689 | cytotoxic, partial curve, poor fit |
| `Cc1c(C)n(Cc2ccccc2)c2ccc(C(=O)OCCN(C)C)cc12` | 24.56 | cytotoxic, single point |
| `Oc1cccc(-c2c3nc(c(-c4cccc(O)c4)c4ccc([nH]4)c(-c4cccc(O)c4)c4nc(c(-c5cccc(O)c5)c5ccc2[nH]5)CC4)C=C3)c1` | 38.93 | cytotoxic, single point |
| `O=c1c(O)c(-c2ccc(O)c(O)c2)oc2cc(O)cc(O)c12` | 34.69 | cytotoxic, single point |
| `COc1ccc(C(=O)CC(=O)c2ccc(C(C)(C)C)cc2)cc1` | 15.34 | cytotoxic, full curve, poor fit |
| `CC(=NNC(=S)N1CCC1)c1ccccn1` | 0.0019 | cytotoxic, full curve, poor fit |
| `O=C(NCc1ccccc1)c1csc(Nc2ccncn2)n1` | 43.24 | cytotoxic, single point |
| `c1ccc2c(Cc3c[nH]c4ccccc34)c[nH]c2c1` | 38.54 | cytotoxic, single point |
| `COC(=O)C1=CO[C@@H](O)[C@@H]2C(CO)=CC[C@@H]12` | 30.61 | cytotoxic, single point |
| `CC(C)Oc1ccc2c(=O)c(-c3ccccc3)coc2c1` | 17.39 | cytotoxic, partial curve |
| `CC(CN(C)C)C(C)(O)Cc1ccc(Cl)cc1` (stereo not given) | 15.5 | cytotoxic, partial curve |
| `Cc1cc(C(C)(C)C)cc(C)c1CC1=NCCN1` | 10.97 | cytotoxic, partial curve, poor fit |
| `OCCOCCN1CCN(C2=Nc3ccccc3Sc3ccccc32)CC1` | 30.92 | cytotoxic, partial curve, poor fit |
| `O=c1c(O)c(-c2ccc(O)c(O)c2)oc2cc(O)cc(O)c12` | 21.67 | cytotoxic, partial curve |
| `Cc1ccc(NC(=O)c2ccc(CN3CCN(C)CC3)cc2)cc1Nc1nccc(-c2cccnc2)n1` | 30.61 | cytotoxic, partial curve |
| `CC1(C)O[C@H]2C[C@@H]3[C@H]4CCC5=CC(=O)C=C[C@]5(C)[C@@]4(F)[C@@H](O)C[C@]3(C)[C@]2(C(=O)CO)O1` | 48.52 | cytotoxic, partial curve, poor fit |
| `Cc1ccc(N)cc1O` | 89.29 | cytotoxic, single point |
| `CCCS(=O)c1ccc2nc(NC(=O)OC)[nH]c2c1` (stereo not given) | 30.92 | cytotoxic, single point |
| `c1ccc2c(CN3CCNCC3)cccc2c1` | 38.54 | cytotoxic, single point |
| `Nc1nc2ccc(OC(F)(F)F)cc2s1` | 21.89 | cytotoxic, single point |
| `CC(=O)[C@H]1CC[C@H]2[C@@H]3CC=C4C[C@@H](O)CC[C@]4(C)[C@H]3CC[C@]12C` | 19.31 | cytotoxic, partial curve |
| `COc1ccc(-c2ccc3cc(C(=O)O)ccc3c2)cc1C12CC3CC(CC(C3)C1)C2` | 0.0123 | cytotoxic, full curve |
| `CC1(C)CCC2=C(O1)c1ccccc1C(=O)C2=O` | 43.24 | cytotoxic, single point |
| `COc1ccc(-c2cc(=O)c3c(O)cc(O)cc3o2)cc1O` | 38.54 | cytotoxic, single point |

For reference, 4 entries once more:

COc1ccc(C(=O)CC(=O)c2ccc(C(C)(C)C)cc2)cc1 gave potency 15.34 µM (cytotoxic, full curve, poor fit).
Nc1nc2ccc(OC(F)(F)F)cc2s1 gave potency 21.89 µM (cytotoxic, single point).
O=C1Nc2ccc(I)cc2C1=Cc1cc(Br)c(O)c(Br)c1 gave potency 13.67 µM (cytotoxic, partial curve).
CC(CN(C)C)C(C)(O)Cc1ccc(Cl)cc1 (stereo not given) gave potency 15.5 µM (cytotoxic, partial curve).

Data taken from PubChem BioAssay AID1347103, deposited by NCATS (2019).